Reference: article PMC11938383, “Antibodies targeting ADAM17 reverse neurite outgrowth inhibition by myelin-associated inhibitors” (Life Science Alliance, 2025)
No constants are given. Whether binding was seen depends on the method and setting. Some entries that bind do so weakly or less than the wild type. Values belong to the molecule of their own block, whether it stands above or below them.

The chains behind the UniProt entries cited, without tags or fusion partners. Where a name states a change or a piece, a line headed by the entry shows the natural chain unless it says otherwise. A line that says so, or that is headed by a name, gives the form on record, which may keep a tag or linker. Residues count along the entry.
ADAM17 ectodomain (ECD), residues 215-650, active-site mutant E406A (P78536, form named): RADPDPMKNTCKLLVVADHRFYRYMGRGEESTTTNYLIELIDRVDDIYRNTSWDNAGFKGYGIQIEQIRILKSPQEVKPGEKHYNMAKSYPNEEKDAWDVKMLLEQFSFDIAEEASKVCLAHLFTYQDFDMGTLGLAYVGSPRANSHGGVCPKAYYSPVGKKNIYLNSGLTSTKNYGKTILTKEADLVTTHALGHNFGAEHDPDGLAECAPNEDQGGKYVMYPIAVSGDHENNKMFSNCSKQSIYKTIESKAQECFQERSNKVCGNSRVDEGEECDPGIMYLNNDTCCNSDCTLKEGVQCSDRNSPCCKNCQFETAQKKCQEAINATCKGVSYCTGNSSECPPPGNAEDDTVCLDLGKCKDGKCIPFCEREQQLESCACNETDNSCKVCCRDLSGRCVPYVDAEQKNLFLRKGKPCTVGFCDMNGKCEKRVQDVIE
UniProt Q9D1T0: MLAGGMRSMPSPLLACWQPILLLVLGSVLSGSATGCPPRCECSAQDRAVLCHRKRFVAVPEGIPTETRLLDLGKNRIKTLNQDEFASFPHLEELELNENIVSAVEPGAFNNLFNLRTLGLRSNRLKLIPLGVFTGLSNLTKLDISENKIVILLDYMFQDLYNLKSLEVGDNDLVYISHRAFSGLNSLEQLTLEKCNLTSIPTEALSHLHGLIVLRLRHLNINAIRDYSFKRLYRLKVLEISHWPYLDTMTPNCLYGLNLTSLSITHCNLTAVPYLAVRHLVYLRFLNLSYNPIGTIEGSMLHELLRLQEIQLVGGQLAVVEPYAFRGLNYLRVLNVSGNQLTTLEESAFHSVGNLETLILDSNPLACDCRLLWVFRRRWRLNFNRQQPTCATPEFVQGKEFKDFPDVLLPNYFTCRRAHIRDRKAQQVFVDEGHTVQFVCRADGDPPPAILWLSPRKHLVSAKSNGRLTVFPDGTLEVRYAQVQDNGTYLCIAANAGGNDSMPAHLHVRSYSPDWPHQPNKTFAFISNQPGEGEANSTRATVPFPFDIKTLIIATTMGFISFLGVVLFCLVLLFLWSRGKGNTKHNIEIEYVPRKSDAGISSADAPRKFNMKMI
UniProt P08138, residues 31-210: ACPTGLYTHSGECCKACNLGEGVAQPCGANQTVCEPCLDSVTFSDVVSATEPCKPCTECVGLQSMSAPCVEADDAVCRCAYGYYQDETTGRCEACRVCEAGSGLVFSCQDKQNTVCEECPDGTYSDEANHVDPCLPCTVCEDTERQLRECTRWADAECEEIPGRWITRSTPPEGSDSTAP
UniProt P20916: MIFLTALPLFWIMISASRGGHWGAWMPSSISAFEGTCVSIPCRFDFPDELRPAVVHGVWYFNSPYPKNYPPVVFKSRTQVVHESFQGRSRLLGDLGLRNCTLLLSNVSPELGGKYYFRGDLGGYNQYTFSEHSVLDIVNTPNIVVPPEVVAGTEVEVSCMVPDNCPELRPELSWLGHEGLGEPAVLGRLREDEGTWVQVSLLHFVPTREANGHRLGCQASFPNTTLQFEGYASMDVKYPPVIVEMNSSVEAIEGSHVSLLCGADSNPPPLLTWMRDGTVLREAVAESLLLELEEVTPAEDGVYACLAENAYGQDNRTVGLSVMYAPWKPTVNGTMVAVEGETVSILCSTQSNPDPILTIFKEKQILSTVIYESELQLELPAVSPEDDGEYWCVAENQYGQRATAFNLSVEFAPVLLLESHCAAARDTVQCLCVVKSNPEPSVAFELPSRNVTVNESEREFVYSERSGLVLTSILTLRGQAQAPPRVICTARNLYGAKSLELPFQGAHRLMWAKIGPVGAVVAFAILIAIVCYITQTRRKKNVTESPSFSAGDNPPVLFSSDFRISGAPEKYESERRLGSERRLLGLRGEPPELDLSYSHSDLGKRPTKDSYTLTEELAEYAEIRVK

Assays:
[1] = biological target: ADAM17 ECD (E406A)-Fc (human) (UniProt P78536); experiment: pull-down; protein A-Sepharose; bait: pre-formed neuronal complex (Lingo-1-Fc, NgR1, p75, GT1b), pre-formed 5-mer complex, p75-Fc, or ADAM17 ECD (E406A)-Fc; prey: ADAM17 ECD (E406A), ADAM17 D+C or untagged p75; washed twice; SDS-PAGE; both purified
[2] = biological target: ADAM17 ectodomain (ECD), residues 215-650, active-site mutant E406A (human) (UniProt P78536); experiment: ELISA; wells coated with ADAM17 ECD (E406A) or ADAM17 D+C; varying concentrations of mAbs D8P1C1, D5P2A11 or C12 added for 1 h at RT, washed, then 5-mer complex (25 μg/ml); detected with MAG A-11; both purified
[3] = biological target: T1, ADAM10 D+C (residues 455-646) (bovine) (UniProt Q10741); experiment: ELISA; wells coated with 2 μg/ml ADAM17 ECD (E406A), ADAM17 D+C, ADAM10 ECD (E384A) or ADAM10 D+C overnight at 4°C; varying concentrations of 5-mer complex or isolated p75 added, 1 h at RT; detected with mAb 8J2 (p75) or MAG A-11 (5-mer); both purified
T1 sequence: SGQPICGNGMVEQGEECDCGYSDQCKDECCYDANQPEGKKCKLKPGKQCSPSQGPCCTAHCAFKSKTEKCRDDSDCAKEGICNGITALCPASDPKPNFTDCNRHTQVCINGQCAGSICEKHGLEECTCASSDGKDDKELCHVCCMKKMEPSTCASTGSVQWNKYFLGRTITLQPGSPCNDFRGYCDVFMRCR

[4] = biological target: ADAM10 ectodomain (ECD), residues 214-646, active-site mutant E384A (bovine) (UniProt Q10741); experiment: as above
[5] = biological target: ADAM17 ectodomain (ECD), residues 215-650, active-site mutant E406A (human) (UniProt P78536); experiment: as above
[6] = biological target: neuron-myelin 5-mer signaling complex (NgR1, Lingo-1-Fc, p75, MAG, GT1b-Na) (mouse | human) (UniProt Q9D1T0+Q9BZR6+P08138+P20916); experiment: pull-down; protein A-Sepharose; bait: pre-formed neuronal complex (Lingo-1-Fc, NgR1, p75, GT1b), pre-formed 5-mer complex, p75-Fc, or ADAM17 ECD (E406A)-Fc; prey: ADAM17 ECD (E406A), ADAM17 D+C or untagged p75; washed twice; SDS-PAGE; both purified
[7] = biological target: NgR1 (residues 30-430) (human) (UniProt Q9BZR6); experiment: SEC; individual proteins (Lingo-1, NgR1, p75 31-250) run alone on the SD-200 column, in the presence of GT1b-Na; both purified

Molecule: ADAM17 ectodomain (ECD), residues 215-650, active-site mutant E406A (from UniProt P78536 215-650) (domain or fragment)
binding [6]: binds

B1: NgR1 (residues 30-430) (domain or fragment, UniProt Q9BZR6 30-430)
chain: ACVCYNEPKVTTSCPQQGLQAVPVGIPAASQRIFLHGNRISHVPAASFRACRNLTILWLHSNVLARIDAAAFTGLALLEQLDLSDNAQLRSVDPATFHGLGRLHTLHLDRCGLQELGPGLFRGLAALQYLYLQDNALQALPDDTFRDLGNLTHLFLHGNRISSVPERAFRGLHSLDRLLLHQNRVAHVHPHAFRDLGRLMTLYLFANNLSALPTEALAPLRALQYLRLNDNPWVCDCRARPLWAWLQKFRGSSSEVPCSLPQRLAGRDLKRLAANDLQGCAVATGPYHPIWTGRATDEEPLGLPKCCQPDAADKASVLEPGRPASAGNALKGRVPPGDSPPGNGSGPRHINDSPFGTLPGSAEPPLTAVRPEGSEPPGFPTSGPRRRPGCSRKNRTRSHCR
binding [7]: no binding

Other lines, results leading:

binding [1]: no binding
Molecule: p75 (residues 31-210) (from UniProt P08138 31-210) (domain or fragment)

binding [2]: binds
binding [3]: no binding
binding [4]: no binding
binding [5]: binds
Molecule: neuron-myelin 5-mer signaling complex (NgR1, Lingo-1-Fc, p75, MAG, GT1b-Na) (from UniProt Q9D1T0 35-516; Q9BZR6 30-430; P08138 31-210; P20916 22-504)
